Each number is a percent effect as filed.
The record does not define 0% and 100%; most values in the screen are far below 50% and negative numbers occur (in some assays of this library far below -100).
This is an unselected part of the compounds tested.
Two or more numbers in one place are separate tests of the same structure; such repeats can differ widely.

Mtb cholesterol medium: 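Growth of Mycobacterium tuberculosis over 4 days (cholesterol / DPPC medium with tyloxapol); the read-out is not stated. Concentration: 50 µM. Higher reads as more growth inhibition (inferred: compounds with an IC50 in retests scored well above the rest). About 69,000 compounds were tested under these conditions; 0.54% (about 370) showed 50% or more at least once.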
Mtb glucose medium: 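Whole-cell growth test on Mycobacterium tuberculosis, read after 3 days in glucose-containing 7H9 medium; the read-out is not stated. Tested at 50 µM. The record gives no direction; compounds that gave an IC50 in retests scored well above the rest, so higher reads as more growth inhibition. Of about 69,000 compounds tested this way, about 760 (1.1%) reached 50% or more in at least one test.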

CC(OCC(F)(F)F)C(=O)Nc1ccc(-n2cncn2)nc1 (centres unmarked) gave Mtb cholesterol medium: -19.73%; Mtb glucose medium: 9.453%. Cc1cc(-c2cccnc2)nc(C2CCCN2S(C)(=O)=O)n1 (centres unmarked) gave Mtb cholesterol medium: 1.474%; Mtb glucose medium: 13.16%. Result for CN(C)c1ncccc1C(=O)N1CCCN(c2cccnn2)CC1 was Mtb cholesterol medium: 11.3%; Mtb glucose medium: 7.108%. For Cc1ccc2oc(C(=O)N3CCCC(n4cccn4)C3)cc2n1 (centres unmarked) the result was Mtb cholesterol medium: -29.78%; Mtb glucose medium: -7.256%. For CC(=O)c1ccc(NC(=O)N(CCN(C)C)Cc2ccc(C)s2)cc1 the result was Mtb cholesterol medium: 6.515% and 34.36%; Mtb glucose medium: 38.35%.

CC1(C2CCN(CCCC(=O)O)CC2)CN(Cc2ccccc2)C(=O)O1 (centres unmarked) read Mtb cholesterol medium: 1.185%; Mtb glucose medium: -2.31%. For Cc1nc(C)n(CC2CCCN(c3ncnc4ccsc34)C2)n1 (centres unmarked) the result was Mtb cholesterol medium: -14.32%; Mtb glucose medium: -14.82%. O=C(c1ccccc1)N1CC(C(=O)N2CCOCC2)C2(CCOCC2)C1 (centres unmarked) gave Mtb cholesterol medium: -12.48% and -3.357%; Mtb glucose medium: -10.17% and -15.98%. For O=S(=O)(CCN1CCCC1Cn1cncn1)c1ccccc1 (centres unmarked) the result was Mtb cholesterol medium: -17.77%; Mtb glucose medium: -17.21%. With [H][C@@]12CN(C(=O)c3ccc(OC)cc3)CCN1C(=O)CNC2=O the screen gave Mtb cholesterol medium: -5.562%; Mtb glucose medium: -25.61% and -0.5621%.

Cc1ccc(C2CN(Cc3cccc4[nH]ccc34)CCO2)nc1 (centres unmarked) read Mtb cholesterol medium: -42.18%; Mtb glucose medium: -57.93%. For Cc1nc2cc(C3CCOCC3)nn2c(NCC2COCCO2)c1C (centres unmarked) the result was Mtb cholesterol medium: 25.26% and -4.66%; Mtb glucose medium: 20.71%. COc1cc(N2CCn3cc(CNc4ccccn4)nc3C2)ncn1 read Mtb cholesterol medium: 10.98%; Mtb glucose medium: -3.611% and -2.821%. With Cn1cc(C(=O)N2CCC(Cc3nccs3)CC2)cn1 the screen gave Mtb cholesterol medium: -13.39%; Mtb glucose medium: -18.24%. For CCN1CCOC(CNCc2ccccc2OCc2cccnc2)C1 (centres unmarked) the result was Mtb cholesterol medium: -4.438%; Mtb glucose medium: 3.695%.

CCc1cc(=O)[nH]c2nnc(SCC(=O)OC)n12 read Mtb cholesterol medium: -27.96%; Mtb glucose medium: -10.75% and -0.1764%. For O=C(CCC1CCCO1)NCCCO (centres unmarked) the result was Mtb cholesterol medium: 5.074%; Mtb glucose medium: -6.357% and -0.6282%. With Cc1csc2ncc(-c3ccnc(N4CCN(C)CC4)n3)c(=O)n12 the screen gave Mtb cholesterol medium: -19.97%; Mtb glucose medium: -26.13%. Result for CC(C)Nc1nc(-c2ccccc2)nc2c1CCN(C(=O)CC#N)CC2 was Mtb cholesterol medium: 2.639%; Mtb glucose medium: -9.957%. Result for Cc1nn2cc(CNc3nccc(CCC(F)(F)F)n3)nc2s1 was Mtb cholesterol medium: 8.077%; Mtb glucose medium: 13.95%.

With COc1ccc(CC(=O)N2CCC(Nc3ccc(C)nn3)CC2)cc1 the screen gave Mtb cholesterol medium: 0.978%; Mtb glucose medium: 18.28%. Cc1ccc(-c2noc(CN3CC(n4cc(C)cn4)C3)n2)cc1 read Mtb cholesterol medium: 57.51%; Mtb glucose medium: 79.83%. O=C(c1cscn1)N1CCCC12CCCN(S(=O)(=O)c1ccccc1)C2 (centres unmarked) read Mtb cholesterol medium: -1.516% and 7.587%; Mtb glucose medium: -0.4954% and -1.904%. For OCCNc1cc(N2CCN(Cc3ccccc3)C(CCO)C2)ncn1 (centres unmarked) the result was Mtb cholesterol medium: 13.36%; Mtb glucose medium: 28.23% and 4.287%. For COCc1noc(Cn2ccc3ccccc3c2=O)n1 the result was Mtb cholesterol medium: 4.358%; Mtb glucose medium: 14.28%.

CCC1CN(c2cnn(C)c(=O)c2Cl)CCO1 (centres unmarked) gave Mtb cholesterol medium: -26.92%; Mtb glucose medium: -8.67%. For CNc1cncc(C2CCN(C(=O)c3cnco3)CC2)n1 the result was Mtb cholesterol medium: 1.095% and 4.275%; Mtb glucose medium: 6.895%. For CN1CCN(C2CCN(CC(=O)NCC(F)(F)F)CC2)C1=O the result was Mtb cholesterol medium: 10.67%; Mtb glucose medium: 14.61%. CN(Cc1noc(C2CC2)n1)C1CCN(CCS(C)(=O)=O)C1 (centres unmarked) read Mtb cholesterol medium: -15.08%; Mtb glucose medium: -26.69%.

2 of the entries, repeated:

structure	Mtb cholesterol medium	Mtb glucose medium
CC1(C2CCN(CCCC(=O)O)CC2)CN(Cc2ccccc2)C(=O)O1 (centres unmarked)	1.185%	-2.31%
Cc1ccc(C2CN(Cc3cccc4[nH]ccc34)CCO2)nc1 (centres unmarked)	-42.18%	-57.93%

Measurements from “University of Dundee, Small-Polar-MMV Screening Library” (2021), ChEMBL document CHEMBL3988442.